No constants are given. Whether binding was seen depends on the method and setting. In cells and extracts the contact can be indirect. Some results given as binding are weak or reduced against the parent protein; the word gives no strength. Where a sequence is shown, tags or fusion partners need not be part of it.
Molecular target: T1, Myc-Chk1 N-terminus (N-terminal kinase domain of Chk1) (human) (UniProt O14757)
T1 sequence (looked up): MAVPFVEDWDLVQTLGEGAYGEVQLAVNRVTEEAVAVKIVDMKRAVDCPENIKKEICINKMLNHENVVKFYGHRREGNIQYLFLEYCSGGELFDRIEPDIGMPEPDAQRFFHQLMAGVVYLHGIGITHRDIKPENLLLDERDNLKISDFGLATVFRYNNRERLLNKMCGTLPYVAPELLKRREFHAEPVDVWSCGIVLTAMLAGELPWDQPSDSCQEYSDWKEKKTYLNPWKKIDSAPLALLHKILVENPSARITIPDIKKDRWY
Test: co-immunoprecipitation from HEK293T cells: anti-Myc IP of Myc-Chk1 N-terminus, anti-GFP immunoblot

B1: GFP-tagged Chk1 C-terminal fragment C5 (protein, human, UniProt O14757 331-476, looked up, not shown: large carriers)
chain: SPSYIDKLVQGISFSQPTCPDHMLLNSQLLGTPGSSQNPWQRLVKRMTRFFTKLDADKSYQCLKETCEKLGYQWKKSCMNQVTISTTDRRNNKLIFKVNLLEMDDKILVDFRLSKGDGLEFKRHFLKIKGKLIDIVSSQKIWLPAT
With B1 the binding was “binds”.
